Experimental data reported in paper PMC10648710.
No constants are given. Whether binding was seen depends on the method and setting. In cells and extracts the contact can be indirect. A yes stands for co-enrichment or nearness to the bait. Other partners may have been found. For some of these results: No binding means not detected with the bait.

Protein sequences, listed by entry. Tags and fused reporters are not part of them. Lines headed by an entry give the natural chain unless they say otherwise; changes in a name come on top.
UniProt A2DLR2: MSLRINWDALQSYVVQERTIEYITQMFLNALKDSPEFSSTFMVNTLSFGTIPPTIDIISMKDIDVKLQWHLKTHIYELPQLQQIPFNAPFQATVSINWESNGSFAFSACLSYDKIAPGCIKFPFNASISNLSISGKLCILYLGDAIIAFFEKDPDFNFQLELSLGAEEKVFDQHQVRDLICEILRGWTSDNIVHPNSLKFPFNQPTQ

T1: TvMmm2b (Trichomonas vaginalis) (UniProt A2G1M4)
T1 sequence: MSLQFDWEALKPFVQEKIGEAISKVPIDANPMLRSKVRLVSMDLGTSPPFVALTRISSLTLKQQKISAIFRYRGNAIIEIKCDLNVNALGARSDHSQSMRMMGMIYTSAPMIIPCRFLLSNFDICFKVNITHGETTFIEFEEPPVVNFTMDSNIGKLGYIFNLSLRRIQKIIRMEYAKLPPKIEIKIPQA

B1: chaperon DnaJ-3 (protein, UniProt A2FNQ4 1-388)
chain: MARDFYNILGVSRDANDDAIKKAYRKLAMKWHPDKNPNNQAEAQAKFQEISEAYNVLSDPQKRKIYDQYGEEGLKVGGNPNPGPQFDSNNFGRAGPHTQYYTFNSDDAEKIFRQFFGPGGFGFGSFGDNDDVFGSMFGNAQRQAGRQSSGPQYQRFTSGNNGFPGAHFQQFTEAPEANDGLFQGRGHRIGSLDPNSNDFSRFYTFRDKADTKQKKSQSPMIVDVNCTLEQLYSGCTKKLRVTRDINGKNDAKLFQIDVKPGWKEGTKITYDGEGDIKPGYKPQNLVFVIKEKQHPLFKREADDLIYEQTIPLKQALAGTRIDITGVDEKSINLSFNEVISPGFSKRIPGLGMPRKAGGRGDLVVKFNVEFPKYLSQEQKDAMVRYLPN
B2: TvMmm2b (protein, UniProt A2G1M4 1-190)
chain: T1 sequence
B3: EF-hand protein (TVAG_378020) (protein, UniProt A2DAZ3 1-186)
chain: MQEDTENLVFNAKMITENPEEKARVFSISFNLREKKLSILEGKSSFCISPQRFLSPSTVIDPTTKSPYTESSFYIGSRIIAAGRLFELVDASDYTLSYMEAYPNRFPYTDVDLCFEYLKKVTENVQLKFQDANPAAFGTMPIEQAREVLYSFHPTLPKHASVTLLRRFSAEGRFNYQAVLEGANIC
B4: EF-hand protein (TVAG_037530) (protein, UniProt A2FCW0 1-785)
chain: MEAVQQLIARIRQTCDRNAVDVELELTSYDRKRNGIISPVSLHRWISSIGLNFTPQQVQTLAEAFKKGEGVDWKALQQTIELSKSYDQGASTKTPNCTEELRRFGSELALRRQSVREVLKQFDPANKGKVSANDFYRAFGCSPLTKLLVKVYADTITGLIDYFRLQNDVQTVSVKQVNPDAPIDELPDCFVLVWRYIKSRSVDLYGLFKRADSMNSGKLSLDAFIAAISSTGASLTPVELRDIAFPFYQVDTGYCNYKQFIATVEAYKPRVSENAPEQEKTETKPSISVDNLLNDIRQIIVSRRIHVSDYFDPLARHGNPDSCPIRVFGQIVASMQLSLSNDEIFAIAENYRLQNGEIDYHKFASAITPQQTMRSSTTIKDVIGNLKQFLATSPTTLMQSASRFDRANTGEMTVEQLQSALGMIGFDANREDLNLICQQYPGKRFATVSWRDLCTAVDPEDAELRLSARKPVEEDEVRARDPTMAGKPPKAINLLLLNIQKSANVYSLQSEFEKNDRRRRGCVPNQVFLDVLLDMQLNLNQSDVRGLISFFRVTGSPEVNYREFLSALNHAEPEPEPEPEKSYQQEKPLPDFAPIVHNFLRRFKSFSRMRRLSVSDIFEPYDPQHTGFIQVFKVAAAFNNVQFTAMRAEMEDLCSAFRDSRKKEIFNYKLFERAVEAEDIDSEWAKAGISGEPISAEVNRDAMATCLQIRDRLSCKRRRIGVAFVGIQSETITSNEFQKRLEDVGIVLRAGQLNALFRKYRVGITEEIRWKDFCTDVENSRTIGE
B5: EF-hand protein (TVAG_157510) (protein, UniProt A2E9M3 1-720)
chain: MCAQILPKLKNYCTTRGIDIPYELEYLDRKRTGFLNELTFRKFFSNIGYPINDQQFKDIVAANTTEKGIEIAKFISSIENSQDQESQQALDIAPIYPELKRLKGYLQTNNTTLREIFRRADPSCRGYVSENAFFHELGYSTDAKKIAAAFTFDKYEGVRYSLIERELNNLQLTTTKVKPDLSKLAESFEFNGIDMNNVFNQYDRYKTGRIPVEAFNAVIRNFSRDSQPIIEYYASPDGSVDIRQFSQDINMTTQTIRSTPKVVTRQVRQVDIDELVSYLKGELRSRHVRMSDFFGDLQHEELVKPQHFQGILNTAGLTISQDEVVALSQKFMNERGLVQLQPFLALFNDAPTQRIPEINVKGLREYLNFSSRRLLPLLQRQDPQRTGEVDIGVLSTILTRSGYAMNRMELEGIKRAFAGRLSPTSIKYEELCMAVDPEIPKQQPKEEPKVEKKQRELTPELMNLLKKANNAYKRNGVCALDEFRIVDMRQTGILTAREISDAVQCAEFTPQEFNKFLSYYPDHKYMDMVRDLQRDEVKADENDQPQKQQYDDNFVQKLAVLKGDLEVRSLTVADVLGARYVPVQRAIGLLAKYTDDAPMICQAFIDRKRPELVDTAVFSREIEKIPAKKKAVTRDDAGAIYRDLGELRAKFEARHCNPRRAFAGKPPKISYDELMDALRSLNIILDGRARFRIREHFEINGEVDWNNFIEEIEKSTTLAF
B6: myeloid leukemia factor (TVAG_150300) (protein, UniProt A2DRT2 1-265)
chain: MFDDWYNDPFFNERQSNPHRDIFSHINETFREFDRHMDNMMHQAFANFGRIPFGIEDDRQSRSHRHEIGMDNSRTSTRHTPQVEEVDDSSDFSQSRASRAPRVEEPDDFSHSSPKPKKDYSVGKYSNTRSNDFSSPFGGNGQSYYYCSSSVSYSNGDGTVSTKRKDMDSTGKTHMAEMRRMGDKTVVYDRKIDSDGKTYDSRKIHGMNEDEVDSFNQKWDSRVREDPFLNRSNRNGLGYAPRKNDSNALGYDSGHHSGSRHGHRH
B7: putative protein serine phosphatase (TVAG_274690) (protein, UniProt A2EB60 1-192)
chain: MQSSEAIDTEPKTISPVPEGRPVLVLDLDETCIYSTPAKPEKQQNFPIRIKRRNVFIQVRPGMQECIRRLSEKYEIFFYTASTKIYANKVIDAIAPFVDNEHRFFVSRDQLKDLTLINRPLGKVLLLDNSACSAQKNNLLLIKTWIGDPNDNAFTNEVMPLLDNLVKESDIPSACRNLVSSRRYPSLYVIRS
B8: myeloid leukemia factor (TVAG_020600) (protein, UniProt A2EXX4 1-270)
chain: MSDWFNDPFFDETSNSNDIFAHANEMFRGIDRHFQQMMKDQFDLMGPMLGYDKDYDSNRPRIGMNNTNNNSRSRVEEVDANAETSGSRSGKSPKVEEPDDFSRSNTRNRSSKVNLPREQNHESFFSGFGDDDFSNGKSYCYCSSQVSYMNGDGTVNMKRKDTDSTGKTHMAEMRRMGDKTVVYDRKVDSDGKTTDSRKVHGMNDDEVDSFNQKWDSKVKDDPFLSHMSRRGANGIGYSSSKRDSNALGYDTKKSSSRENSSHSSSRHSKH
B9: protein with EF hand-type calcium-binding domain (TVAG_454360) (protein, UniProt A2EU49 1-828)
chain: MLSPDIELYCHAIISRMKEVIRVQDLEVLTPDIDPDFRAEIKEEEFRSLVAAFPARFHPDELAALVHKYKKDKYIDFARFISDLVHPDQPIDIVITPESPKKKLPSKYEELARYLYDRCTNLSEAMAPYDKNNTGKVTADQFCRGFLGFDSAMHVFRLAVDRNTNQVDYRQLQREINTIDLKFTAQESNFAPDQIPDIVRKFVQQVNSHGIILQDVFIKLSAHTGFSDPQQFLQTLRTLKLAFTIADYQEITKAFTKEGRVDVKYFLRVANLYSQEKYVPPPPEVVIEHVKARLIDFINDRRLNIWTMFKPYDRSGNGLVPKTIFVNTLIALQFDITDREIREFVDTITVDEDKYVNYIEFAKVVYARRAVNFDETIDSVLERLRNHVIEKSVRLARCLSVYDREKSGLISTSQFIAALRRIQFTLTEKDISLIRDHYEEKKMRHFLLWRHISEDVDIQQGPVGNMSASSSNLQFSPSMREILSSSRTMTTYNTIQVSSSNPTENRPVPDNLIPVFGRIFKRTSDFGIDIADEFLRKDKLKKGRVPRAFFIETISMVNIQLSAQELSDLCQFYTCQNSTDIYYMSFLKDVDEFGTLAADTLHDDDNEEESKPEEEVKNDDYSYVPPPEECRTTRSLEKSDVPHDLESDLAQLKFGCARMHIDPIDMFKDFDKKRTGIVSKSNFARCISNSGIRLSQSIIDSLSNHFSDTKKTDNVNYLRILKAIDENANHVNYANISTDELETIKLQSHKFMERLKQQRKTIANVFDIVEDQDATMPEADFVTKVSQACPTLTNDYLRLFVKKYRAETNGMVYYMRFVNDCNKEALLF

Target: TvMdm12 (Trichomonas vaginalis) (UniProt A2DLR2)
Assay: affinity purification with mass spectrometry; T. vaginalis cells expressing C-terminally HA-tagged bait cross-linked with 1 mM DSP (room temperature, 30 min), solubilised in 50 mM TRIS, 150 mM NaCl, pH 7.2 with 1% Triton X-100; anti-HA Dynabeads 90 min at room temperature; LFQ MS against untransfected T1 control, FDR 0.05, S = 1; three independent coIPs for each bait

Row | binding | Molecule
1 | binds | B1
2 | binds | B2
3 | binds | B3
4 | binds | B4
5 | binds | B5
6 | binds | B6
7 | binds | B7
8 | binds | B8

Target: T1, TvMmm2b (Trichomonas vaginalis)
Assay: as above

Row | binding | Molecule
9 | binds | Rab22
10 | binds | TvMdm12 (from UniProt A2DLR2)
11 | no binding | Tom40
12 | binds | B1
13 | binds | B6
14 | binds | B9
15 | binds | B7
16 | binds | B8
